PubChem BioAssay AID1259254 | NCATS, 2017
Shown is an unselected part of about 59,000 deposited reagents. About 1,550 of them (2.6%) were called active. 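G2 share is only a proxy for re-replication; each gene was hit by three separate siRNAs, and active genes were retested.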 Reagents against one gene are numbered here. Not all columns of the deposit are shown. Not given: the amount of reagent.

Assay: 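Genome-wide screen for genes that prevent DNA re-replication in cancer cells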 (primary screen)
Cell system: human HCT116 colorectal cancer cells
Reagent: single siRNA against human genes
Duration: 3 days
Measured: 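Nuclei stained with Hoechst and imaged; cell-cycle phase assigned by DNA content; G2 share scaled per plate, non-targeting siRNA 0%, GMNN siRNA 100%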
Scale: G2 robust z-score and G2 cells, % of GMNN control: higher = more G2 cells, more excess DNA replication
Call rule: 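Active siRNAs have a G2 robust z of 5 or more median absolute deviations over the median, which in these data means about 38% or higher of GMNN control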

Which result is listed for C10orf55 (GeneID 414236) #1?
G2 robust z-score: -0.00736; G2 cells, % of GMNN control: 2.92; activity call: inactive

How did the screen score C10orf55 (GeneID 414236) #2?
G2 robust z-score: 0.0952; G2 cells, % of GMNN control: 3.64; activity call: inactive

What did the screen give for C10orf55 (GeneID 414236) #3?
G2 robust z-score: 0.871; G2 cells, % of GMNN control: 9.1; activity call: inactive

For SOX2 (GeneID 6657) #1, what was measured?
G2 robust z-score: 0.577; G2 cells, % of GMNN control: 7.02; activity call: inactive

For SOX2 (GeneID 6657) #2, what does the deposit list?
G2 robust z-score: -1.12; G2 cells, % of GMNN control: -4.92; activity call: inactive

With SOX2 (GeneID 6657) #3, how do the results read?
G2 robust z-score: -0.638; G2 cells, % of GMNN control: -1.52; activity call: inactive

What did the screen give for RFC4 (GeneID 5984) #1?
G2 robust z-score: -0.0278; G2 cells, % of GMNN control: 2.77; activity call: inactive

What is on record for RFC4 (GeneID 5984) #2?
G2 robust z-score: 5.61; G2 cells, % of GMNN control: 42.5; activity call: active

What did the screen give for RFC4 (GeneID 5984) #3?
G2 robust z-score: -0.916; G2 cells, % of GMNN control: -3.48; activity call: inactive

Which result is listed for PMPCA (GeneID 23203) #1?
G2 robust z-score: -0.0354; G2 cells, % of GMNN control: 2.72; activity call: inactive

Which result is listed for PMPCA (GeneID 23203) #2?
G2 robust z-score: -1.41; G2 cells, % of GMNN control: -6.95; activity call: inactive

For PMPCA (GeneID 23203) #3, what does the deposit list?
G2 robust z-score: -1.35; G2 cells, % of GMNN control: -6.52; activity call: inactive

Which result is listed for SPACA7 (GeneID 122258) #1?
G2 robust z-score: -0.134; G2 cells, % of GMNN control: 2.03; activity call: inactive

With SPACA7 (GeneID 122258) #2, what does the deposit list?
G2 robust z-score: -1.02; G2 cells, % of GMNN control: -4.18; activity call: inactive

With SPACA7 (GeneID 122258) #3, what does the deposit list?
G2 robust z-score: 0.0152; G2 cells, % of GMNN control: 3.07; activity call: inactive

With POU3F3 (GeneID 5455) #1, what does the deposit list?
G2 robust z-score: -0.821; G2 cells, % of GMNN control: -2.81; activity call: inactive

With POU3F3 (GeneID 5455) #2, what was measured?
G2 robust z-score: 0.367; G2 cells, % of GMNN control: 5.55; activity call: inactive

With POU3F3 (GeneID 5455) #3, what was measured?
G2 robust z-score: 0.525; G2 cells, % of GMNN control: 6.66; activity call: inactive

An excerpt of the results above, as a working copy:
C10orf55 (GeneID 414236) #2: G2 robust z-score = 0.0952; G2 cells, % of GMNN control = 3.64; activity call = inactive
C10orf55 (GeneID 414236) #3: G2 robust z-score = 0.871; G2 cells, % of GMNN control = 9.1; activity call = inactive
SOX2 (GeneID 6657) #1: G2 robust z-score = 0.577; G2 cells, % of GMNN control = 7.02; activity call = inactive
